In this assay the target is A96 (elastin-like polypeptide). The experiment in a line: dynamic light scattering; 10 μM in dPBS, 25 °C and 37 °C, 384-well plate, Wyatt Dynapro plate reader; followed for 7 days at 37 °C; both purified.

These are yes or no findings as the source states them, for the method shown.

In paper PMC7504496 one finds binding data, which are given here for one molecule.

B1: A96 (elastin-like polypeptide) (protein)
chain: MGVPGAGVPGAGVPGAGVPGAGVPGAGVPGAGVPGAGVPGAGVPGAGVPGAGVPGAGVPGAGVPGAGVPGAGVPGAGVPGAGVPGAGVPGAGVPGAGVPGAGVPGAGVPGAGVPGAGVPGAGVPGAGVPGAGVPGAGVPGAGVPGAGVPGAGVPGAGVPGAGVPGAGVPGAGVPGAGVPGAGVPGAGVPGAGVPGAGVPGAGVPGAGVPGAGVPGAGVPGAGVPGAGVPGAGVPGAGVPGAGVPGAGVPGAGVPGAGVPGAGVPGAGVPGAGVPGAGVPGAGVPGAGVPGAGVPGAGVPGAGVPGAGVPGAGVPGAGVPGAGVPGAGVPGAGVPGAGVPGAGVPGAGVPGAGVPGAGVPGAGVPGAGVPGAGVPGAGVPGAGVPGAGVPGAGVPGAGVPGAGVPGAGVPGAGVPGAGVPGAGVPGAGVPGAGVPGAGVPGAGVPGAGVPGAGVPGAGVPGAGVPGAGVPGAGVPGAGVPGAGY
As for B1, the binding entry is on record as “no binding (tested: 10 μM)”.
